For the test, the target named is Argonaute 2 (AGO2) (human (endogenous in HEK293, HEK293T, A549, SK-N-BE(2), MCF7)) (UniProt Q9UKV8). Kind of test: co-IP.

Protein sequences, listed by entry. Tags and fused reporters are not part of them.
UniProt Q9UKV8: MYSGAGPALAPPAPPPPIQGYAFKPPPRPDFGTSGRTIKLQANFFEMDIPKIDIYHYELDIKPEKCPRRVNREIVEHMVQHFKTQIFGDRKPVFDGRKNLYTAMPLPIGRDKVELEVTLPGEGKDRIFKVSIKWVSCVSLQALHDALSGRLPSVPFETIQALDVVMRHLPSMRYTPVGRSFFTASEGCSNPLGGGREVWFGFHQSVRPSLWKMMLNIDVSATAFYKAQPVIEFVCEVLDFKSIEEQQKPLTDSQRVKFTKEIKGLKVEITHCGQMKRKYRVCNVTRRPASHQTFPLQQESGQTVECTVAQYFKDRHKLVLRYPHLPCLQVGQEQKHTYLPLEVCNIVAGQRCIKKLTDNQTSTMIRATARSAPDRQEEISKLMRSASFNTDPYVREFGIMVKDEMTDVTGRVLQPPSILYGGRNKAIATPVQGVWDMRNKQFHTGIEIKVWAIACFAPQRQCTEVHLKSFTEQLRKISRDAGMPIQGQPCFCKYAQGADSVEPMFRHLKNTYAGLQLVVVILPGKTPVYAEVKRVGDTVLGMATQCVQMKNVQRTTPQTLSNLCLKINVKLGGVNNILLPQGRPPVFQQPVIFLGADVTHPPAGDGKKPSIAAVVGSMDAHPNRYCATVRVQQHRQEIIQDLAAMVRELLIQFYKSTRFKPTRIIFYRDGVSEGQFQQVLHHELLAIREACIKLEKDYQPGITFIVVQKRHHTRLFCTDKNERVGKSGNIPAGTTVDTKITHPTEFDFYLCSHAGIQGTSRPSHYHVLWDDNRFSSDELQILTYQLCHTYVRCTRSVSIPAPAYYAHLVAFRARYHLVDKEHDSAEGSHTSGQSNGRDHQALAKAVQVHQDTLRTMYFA
UniProt Q8NDV7: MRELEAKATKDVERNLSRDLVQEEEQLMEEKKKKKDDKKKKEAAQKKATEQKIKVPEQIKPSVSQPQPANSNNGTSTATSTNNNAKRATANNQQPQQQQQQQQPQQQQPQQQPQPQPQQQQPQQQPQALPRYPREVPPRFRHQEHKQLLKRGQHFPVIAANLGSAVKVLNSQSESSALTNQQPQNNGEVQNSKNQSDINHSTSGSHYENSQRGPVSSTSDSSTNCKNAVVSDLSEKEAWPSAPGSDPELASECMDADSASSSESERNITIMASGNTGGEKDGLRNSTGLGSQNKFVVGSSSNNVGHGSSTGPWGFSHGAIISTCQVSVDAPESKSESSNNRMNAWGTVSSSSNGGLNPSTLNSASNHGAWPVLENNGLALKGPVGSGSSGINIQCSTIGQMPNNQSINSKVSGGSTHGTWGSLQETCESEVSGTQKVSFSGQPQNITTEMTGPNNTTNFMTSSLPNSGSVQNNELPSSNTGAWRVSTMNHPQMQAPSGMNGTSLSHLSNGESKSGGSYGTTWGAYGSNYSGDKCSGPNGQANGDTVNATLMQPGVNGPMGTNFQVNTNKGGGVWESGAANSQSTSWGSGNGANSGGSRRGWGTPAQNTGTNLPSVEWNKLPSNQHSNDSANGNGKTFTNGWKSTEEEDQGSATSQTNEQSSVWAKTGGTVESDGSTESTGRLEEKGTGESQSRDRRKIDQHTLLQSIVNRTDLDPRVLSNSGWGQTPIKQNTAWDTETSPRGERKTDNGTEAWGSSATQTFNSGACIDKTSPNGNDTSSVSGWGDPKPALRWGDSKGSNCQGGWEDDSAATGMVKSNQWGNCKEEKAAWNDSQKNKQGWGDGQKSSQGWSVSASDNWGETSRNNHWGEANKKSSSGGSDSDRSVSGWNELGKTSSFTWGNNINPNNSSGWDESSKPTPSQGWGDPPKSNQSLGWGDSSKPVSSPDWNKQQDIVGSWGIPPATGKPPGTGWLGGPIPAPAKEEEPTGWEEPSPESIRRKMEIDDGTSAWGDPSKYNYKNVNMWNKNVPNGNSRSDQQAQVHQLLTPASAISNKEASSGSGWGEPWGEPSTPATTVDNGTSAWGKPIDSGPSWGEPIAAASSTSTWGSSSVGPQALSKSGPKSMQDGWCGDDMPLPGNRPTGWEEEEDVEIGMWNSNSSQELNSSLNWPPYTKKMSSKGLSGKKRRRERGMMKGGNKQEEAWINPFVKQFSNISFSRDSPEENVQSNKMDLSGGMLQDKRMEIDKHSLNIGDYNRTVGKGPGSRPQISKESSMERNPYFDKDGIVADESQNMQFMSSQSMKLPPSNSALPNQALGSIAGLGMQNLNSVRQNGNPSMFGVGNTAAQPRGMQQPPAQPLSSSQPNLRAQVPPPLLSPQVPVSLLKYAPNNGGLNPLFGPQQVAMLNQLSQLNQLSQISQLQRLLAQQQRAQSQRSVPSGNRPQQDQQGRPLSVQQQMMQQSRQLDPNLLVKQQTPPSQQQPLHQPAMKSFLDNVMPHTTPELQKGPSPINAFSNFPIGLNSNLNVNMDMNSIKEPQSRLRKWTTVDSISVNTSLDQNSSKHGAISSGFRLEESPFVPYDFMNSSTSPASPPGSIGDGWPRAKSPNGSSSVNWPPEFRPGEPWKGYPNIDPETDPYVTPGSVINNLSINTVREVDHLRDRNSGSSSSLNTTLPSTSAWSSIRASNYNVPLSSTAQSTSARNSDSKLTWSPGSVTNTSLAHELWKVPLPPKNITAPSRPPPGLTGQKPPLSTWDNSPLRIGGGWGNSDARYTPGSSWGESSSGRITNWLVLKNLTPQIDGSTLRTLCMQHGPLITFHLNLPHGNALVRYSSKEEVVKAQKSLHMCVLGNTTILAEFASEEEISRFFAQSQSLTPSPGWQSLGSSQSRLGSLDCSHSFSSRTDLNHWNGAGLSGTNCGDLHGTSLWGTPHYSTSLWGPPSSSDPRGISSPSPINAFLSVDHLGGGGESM

No constants are given. Whether binding was seen depends on the method and setting. In cells and extracts the contact can be indirect. Some binding calls cover weakened binding; strength is not graded here.

On to TNRC6A (from UniProt Q8NDV7 1-1962), for which the binding result is reported as “binds”.

Source of the values: article doi:10.1101/2024.03.07.583365.
